Measurements published in paper PMC12670160, “A drug-repurposing screen of FDA- and EMA-approved drugs identifies two NF-κB inhibitors active against eumycetoma” (Journal of Antimicrobial Chemotherapy, 2025).
Where a name gives a salt, the structure may show the parent alone. Read-outs that look alike come from different tables or passages of the source. The campaign covered roughly 5,300 compounds. About 130 (2.5%) showed an effect of 50% or more. Some of the results follow.

Tested on: M. mycetomatis strain mm55
Conditions: primary screen, metabolic activity vs growth control, 96 h, 2 µM, inhibitor

SMILES	% viability [%]	% viability (Madurella mycetomatis metabolic activity at 2µM (%)) [%]
CCCN1C[C@H](CSC)C[C@@H]2c3cccc4[nH]cc(c34)C[C@H]21 [ONC0004518, pergolide mesylate]	87.18	–
Cc1cc(C(N)=O)ccc1-n1c(CCC(=O)O)ccc1-c1ccc(-n2ccnc2)cc1 [ONC0002521, n6022]	67.4	–
N#Cc1ccc(N2NC3=C(CCc4cc(C(=O)O)ccc43)[C@@H]2C2CCCC2)cc1Cl [ONC0002131, pf03882845]	78.15	–
CC(=O)Nc1ccccc1 [ONC0000688, acetanilide]	114.7	–
O=C(/C=C/c1ccc2ccccc2n1)c1ccncc1 [ONC0002509, pfk015]	73.37	–
COC(=O)[C@H](CCCNC(=N)N)NS(=O)(=O)c1ccc(C)cc1 [ONC0004976, tame]	63.05	–
CC(C)N(C[C@H]1O[C@@H](n2cnc3c(N)ncnc32)[C@H](O)[C@@H]1O)[C@H]1C[C@@H](CCc2nc3cc(C(C)(C)C)ccc3[nH]2)C1 [ONC0004580, pinometostat epz5676]	93.61	–
COC(=O)C1=C(C)NC(C)=C(C(=O)OCCN2CCN(C(c3ccccc3)c3ccccc3)CC2)C1c1cccc([N+](=O)[O-])c1 (centres unmarked) [ONC0000461, manidipine hydrochloride]	64.38	–
CCOc1nc2cccc(C(=O)OC(C)OC(=O)OC3CCCCC3)c2n1Cc1ccc(-c2ccccc2-c2nnn[nH]2)cc1 (centres unmarked) [ONC0004302, candesartan cilextil]	98.1	–
COC(c1ccccc1)(c1ccccc1)[C@H](Oc1nc(C)cc(C)n1)C(=O)O [ONC0005273, ambrisentan]	123	–
N[C@H](C(=O)O)c1ccc(O)c(C(=O)O)c1 [ONC0002607, 3carboxy4hydroxyphenylglycines]	77.12	–
CC1(C)[C@@H]2CC[C@@]1(C)C(=O)C2 [ONC0001100, camphor]	81.73	–
Cc1ccccc1-c1cc(N2CCN(C)CC2)ncc1N(C)C(=O)C(C)(C)c1cc(C(F)(F)F)cc(C(F)(F)F)c1 [ONC0000756, netupitant]	100.4	–
Cc1c(C)c2c(c(C)c1O)CCC(C)(COc1ccc(CC3SC(=O)NC3=O)cc1)O2 (centres unmarked) [ONC0003470, troglitazone]	96.71	–
N[C@H](Cc1ccc(I)cc1)C(=O)O [ONC0001891, 4iodolphenylalanine]	73.96	–
CC1Sc2c(C(=O)O)c(=O)c3cc(F)c(N4CCNCC4)cc3n21 (centres unmarked) [ONC0003341, ulifloxacin]	85.47	–
NC(=S)NN=Cc1ccncc1 [ONC0003747, perchlozone]	128.7	–
NC(=O)CN1C[C@H](O)CC1=O [ONC0001227, roxiracetam]	88.71	–
Nc1nc(NC2CC2)cc(-c2cccc(Cl)c2Cl)n1 [ONC0001006, th588]	80.42	–
Cc1ncc(CO)c(/C=N/NC(=O)c2ccncc2)c1O [ONC0002735]	78.77	–
CC1/C=C/C=C/C=C/C=C/C=C/C=C/C=C/C(O[C@@H]2O[C@H](C)[C@H](O)[C@@H](O)[C@@H]2N)CC(O)C(C(=O)O)C(O)CC(=O)CC(O)CC(O)CC(O)CC(=O)CCCC(=O)CC(=O)OC1C(C)CC(C)C(O)CC(=O)c1ccc(N)cc1 (some centres unmarked) [ONC0002443, candicidin]	69.9	–

SMILES	% viability [%]	% viability (Madurella mycetomatis metabolic activity at 2µM (%)) [%]
CC1=C(/C=C/C(C)=C/C=C/C(C)=C/C(=O)O)C(C)(C)CCC1 [ONC0002164, tretinoin]	77.04	–
N#CC(c1ccccc1)(c1ccccc1)c1ccccc1Cl [ONC0000177, tram39]	89.73	–
NC[C@@H]1CC[C@@H](N)[C@@H](O[C@H]2[C@H](O)[C@@H](O[C@H]3O[C@H](CO)[C@@H](O)[C@H](N)[C@H]3O)[C@H](N)C[C@@H]2N)O1 [ONC0002876, dibekacin]	131.3	–
CCCN(C/C=C/I)C1CCc2ccc(O)cc2C1 (centres unmarked) [ONC0001911, 7hydroxypipat]	65.65	–
CSCC1CN(/N=C/c2ccc([N+](=O)[O-])o2)C(=O)O1 (centres unmarked) [ONC0001818, nifuratel]	119	–
COc1ccc2ccc(=O)oc2c1CC=C(C)C [ONC0004744, osthole osthol]	105.5	–
CC1=C(/C=C/C(C)=C/C=C/C(C)=C/C=C/C=C(C)/C=C/C=C(C)/C=C/C2=C(C)C(=O)[C@@H](O)CC2(C)C)C(C)(C)C[C@H](O)C1=O [ONC0003321, astaxanthin]	82.08	–
CC(Oc1ccc(Cl)cc1)c1ccnc2ncnn12 (centres unmarked) [ONC0001925, bts72664]	63.82	–
CCCCNC(=O)[C@@H]1Cc2ccccc2N1C(=O)[C@@H](N)CC [ONC0001604, butabindide]	81.41	–
CNS(=O)(=O)CCc1ccc2[nH]cc(C3CCN(C)CC3)c2c1 [ONC0004816, naratriptan hcl]	87.89	–
O=C(O)CNC(=O)c1c(O)c2ccccc2n(Cc2ccccc2)c1=O [ONC0005126, iox2]	78.07	–
CC(=O)Oc1ccccc1C(=O)O [ONC0003312, aspirin]	99.31	–
O=C(NCc1cccc(O)c1)Nc1nc(-c2ccncc2)cs1 [ONC0002554, srpin340]	–	81.94
O=C(O)C(O)C(O)C(O)C(O)CO (centres unmarked) [ONC0005630, hexonicacid]	64.98	–
CC#C[C@@H](CC(=O)O)c1ccc(OCc2cccc(-c3ccc(C(F)(F)F)cc3)c2)cc1 [ONC0004239, amg 837 calcium hydrate]	78.35	–
O=C(O)c1ccc(-c2c[nH]c3ncc(-c4ccccc4)cc23)cc1C1CCCC1 [ONC0000050, gsk650394]	89.55	–
Cc1ncc(CO)c(CO)c1O [ONC0003956, pyridoxine hydrochloride]	72.63	–
CC(CCc1ccccc1)NC(C)C(O)c1ccc(O)cc1 (centres unmarked) [ONC0000526, nylidrin hydrochloride]	89.82	–
COc1cc2c3cc1Oc1cc(ccc1O)C[C@@H]1c4c(cc(OC)c(O)c4Oc4ccc(cc4)C[C@@H]3N(C)CC2)CC[N+]1(C)C [ONC0003196, tubocurarine chloride pentahydrate]	147.6	–
Nc1nccc(/C=C/c2ccccc2)n1 [ONC0001621, tcn238]	73.65	–

Reprinted from above, eleven compounds:
SMILES	% viability [%]	% viability (Madurella mycetomatis metabolic activity at 2µM (%)) [%]
Cc1ncc(CO)c(/C=N/NC(=O)c2ccncc2)c1O [ONC0002735]	78.77	–
CC1/C=C/C=C/C=C/C=C/C=C/C=C/C=C/C(O[C@@H]2O[C@H](C)[C@H](O)[C@@H](O)[C@@H]2N)CC(O)C(C(=O)O)C(O)CC(=O)CC(O)CC(O)CC(O)CC(=O)CCCC(=O)CC(=O)OC1C(C)CC(C)C(O)CC(=O)c1ccc(N)cc1 (some centres unmarked) [ONC0002443, candicidin]	69.9	–
CC1=C(/C=C/C(C)=C/C=C/C(C)=C/C(=O)O)C(C)(C)CCC1 [ONC0002164, tretinoin]	77.04	–
N#CC(c1ccccc1)(c1ccccc1)c1ccccc1Cl [ONC0000177, tram39]	89.73	–
NC[C@@H]1CC[C@@H](N)[C@@H](O[C@H]2[C@H](O)[C@@H](O[C@H]3O[C@H](CO)[C@@H](O)[C@H](N)[C@H]3O)[C@H](N)C[C@@H]2N)O1 [ONC0002876, dibekacin]	131.3	–
CCCN(C/C=C/I)C1CCc2ccc(O)cc2C1 (centres unmarked) [ONC0001911, 7hydroxypipat]	65.65	–
CSCC1CN(/N=C/c2ccc([N+](=O)[O-])o2)C(=O)O1 (centres unmarked) [ONC0001818, nifuratel]	119	–
COc1ccc2ccc(=O)oc2c1CC=C(C)C [ONC0004744, osthole osthol]	105.5	–
CC1=C(/C=C/C(C)=C/C=C/C(C)=C/C=C/C=C(C)/C=C/C=C(C)/C=C/C2=C(C)C(=O)[C@@H](O)CC2(C)C)C(C)(C)C[C@H](O)C1=O [ONC0003321, astaxanthin]	82.08	–
CC(Oc1ccc(Cl)cc1)c1ccnc2ncnn12 (centres unmarked) [ONC0001925, bts72664]	63.82	–
CCCCNC(=O)[C@@H]1Cc2ccccc2N1C(=O)[C@@H](N)CC [ONC0001604, butabindide]	81.41	–

Additional records follow:

SMILES	% viability [%]	% viability (Madurella mycetomatis metabolic activity at 2µM (%)) [%]
O=C1NC(=O)c2c1c1c3ccccc3[nH]c1c1[nH]c3ccccc3c21 [ONC0003629, arcyriaflavina]	80.39	–
OC(c1ccccc1)(c1ccccc1)C12CC[N+](CCOCc3ccccc3)(CC1)CC2 [ONC0000981, umeclidinium bromide]	69.71	–
COc1cc(C(=O)NCCCCCC(=O)O)cc(OC)c1OC [ONC0003945, capobenic acid]	59.91	–
N[C@@H](CCC(=O)N[C@@H](CS)C(=O)NCC(=O)O)C(=O)O [ONC0004053, glutathione]	106.8	–
CC1=C(C(=O)O)N2C(=O)[C@@H](NC(=O)[C@H](N)C3=CCC=CC3)[C@H]2SC1 [ONC0000905, cefradine]	67.04	–
C#Cc1cccc(Nc2ncnc3cc4c(cc23)OCCOCCOCCO4)c1 [ONC0004775, icotinib]	65.11	–
C=CC(=O)Nc1cc(Nc2nccc(-c3cn(C)c4ccccc34)n2)c(OC)cc1N(C)CCN(C)C [ONC0001076, osimertinib]	66.38	–
COc1cc(NC(=O)c2cccc(-n3cc(NC(=O)Nc4cccc(C)c4)cn3)c2)cc(OC)c1OC [ONC0004464, sr3576]	114	–
NC(=O)CNCCC(c1ccccc1)c1ccccc1 [ONC0000869, n20c]	65.97	–
Cc1ccc(NCCCc2ccccc2)c(N)c1 [ONC0004824, jsh23]	98.24	–
NC(=O)c1nc(Nc2ccccc2)sc1NC(=O)C1CCCCC1 [ONC0003128, unc3230]	102.9	–
O=[N+]([O-])c1cncn1CCN1CCOCC1 [ONC0001176, nimorazole]	113.3	–
C=CC(=O)Nc1cc(Nc2nccc(-c3c[nH]c4ccccc34)n2)c(OC)cc1N(C)CCN(C)C [ONC0005167, az5104]	113.3	–
O=C1NCN(c2ccccc2)C12CCN(CC1COc3ccccc3O1)CC2 (centres unmarked) [ONC0000435, spiroxatrine]	63.33	–
Cn1cc(-c2cnn3c(N)c(Br)c([C@@H]4CCCNC4)nc23)cn1 [ONC0004477, mk8776 sch 900776]	129.9	–
CN1C[C@H](C(=O)N[C@]2(C)O[C@@]3(O)[C@@H]4CCCN4C(=O)[C@H](Cc4ccccc4)N3C2=O)C[C@@H]2c3cccc4[nH]cc(c34)C[C@H]21 [ONC0001275, dihydroergotamine]	111.9	–
C=C1C[C@@]2(O)O[C@@]3(C[C@H]2C(C)C)[C@@H](C)CC[C@@H]13 [ONC0004732, curcumol]	112	–
C[C@]12CC[C@H](O)C[C@H]1CC[C@@H]1[C@@H]2CC[C@]2(C)[C@@](O)(c3ccoc3)CC[C@]12O [ONC0002466, rostafuroxin]	69.84	–
CCCCCCCCCCCCCCCC[n+]1ccn(Cc2ccccc2)c1C [ONC0000882, nh125]	55.59	–
C=CC(=O)Nc1cccc(Nc2nc(Nc3ccc(Oc4ccnc(C(=O)NC)c4)cc3)ncc2F)c1 [ONC0005138, cnx774]	87.05	–
